According to article PMC5258789:
These are yes or no findings as the source states them, for the method shown. Some entries that bind do so weakly or less than the wild type.

Biological target: odorant receptor OR51E1 (human (endogenous in heart tissue)) (UniProt Q8TCB6)
Assay: SDS-PAGE and western blot; lysates of left ventricle and septum of explanted human heart, blotted with anti-OR51E1 antibody; bands of monomer (35 kDa) and dimer (70 kDa)

binding: binds
B1: odorant receptor OR51E1 (receptor, UniProt Q8TCB6 1-318)
chain: MMVDPNGNESSATYFILIGLPGLEEAQFWLAFPLCSLYLIAVLGNLTIIYIVRTEHSLHEPMYIFLCMLSGIDILISTSSMPKMLAIFWFNSTTIQFDACLLQMFAIHSLSGMESTVLLAMAFDRYVAICHPLRHATVLTLPRVTKIGVAAVVRGAALMAPLPVFIKQLPFCRSNILSHSYCLHQDVMKLACDDIRVNVVYGLIVIISAIGLDSLLISFSYLLILKTVLGLTREAQAKAFGTCVSHVCAVFIFYVPFIGLSMVHRFSKRRDSPLPVILANIYLLVPPVLNPIVYGVKTKEIRQRILRLFHVATHASEP
